# Laboratory results from PubChem BioAssay AID588590 (National Center for Advancing Translational Sciences (NCATS), 2011).
# Amino acid sequences for entries named in this document (tags omitted). A change or cut given only in a name is not applied to a line headed by its entry.
# UniProt Q9UNA4: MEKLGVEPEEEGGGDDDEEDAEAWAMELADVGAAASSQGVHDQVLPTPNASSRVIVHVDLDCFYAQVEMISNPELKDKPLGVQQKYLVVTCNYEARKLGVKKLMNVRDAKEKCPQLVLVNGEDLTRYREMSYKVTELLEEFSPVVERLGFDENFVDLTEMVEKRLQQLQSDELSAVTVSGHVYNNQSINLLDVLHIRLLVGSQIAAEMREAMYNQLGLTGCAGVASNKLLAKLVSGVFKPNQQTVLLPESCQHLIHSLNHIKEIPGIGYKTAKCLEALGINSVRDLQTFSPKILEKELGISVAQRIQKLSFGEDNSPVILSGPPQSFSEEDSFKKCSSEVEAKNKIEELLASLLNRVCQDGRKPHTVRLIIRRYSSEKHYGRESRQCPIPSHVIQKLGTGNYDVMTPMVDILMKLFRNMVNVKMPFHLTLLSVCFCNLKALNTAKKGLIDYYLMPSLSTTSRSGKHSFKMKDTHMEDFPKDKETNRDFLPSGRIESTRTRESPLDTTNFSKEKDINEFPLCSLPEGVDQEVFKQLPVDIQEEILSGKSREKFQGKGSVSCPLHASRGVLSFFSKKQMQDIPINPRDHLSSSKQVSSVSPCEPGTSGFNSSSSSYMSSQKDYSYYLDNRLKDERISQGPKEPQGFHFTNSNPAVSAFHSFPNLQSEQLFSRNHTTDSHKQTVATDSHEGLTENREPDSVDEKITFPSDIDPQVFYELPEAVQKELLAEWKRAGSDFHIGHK
# About 4,000 (1%) of roughly 390,000 compounds were called active. The inconclusive results got no clear call from the source; some entries with a clear call stand among them for comparison. Calls come from the whole dose curve; as a rule, active = well fitted inhibition curve with a large enough effect; inconclusive = small, poorly fitted or top-dose-only effect, or another doubt; inactive = no such curve, though single readings can be large or run the other way. Potencies of inconclusive entries are doubtful fits and often do not repeat.
# Target: DNA polymerase iota (Homo sapiens) (UniProt Q9UNA4)
# Experiment: qHTS for Inhibitors of Polymerase Iota
# Settings: Pol iota fluorescent replication assay, 10 min; series mostly up to 115 µM
# Summary of the method: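 Pol iota at 10 nM preincubated 15 min with compounds at room temperature; reaction started with fluorescent substrate, 50 nM final. Fluorescence read kinetically at 0 and 10 min; buffer-only wells as negative control.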
# Potency is the fitted concentration of half-maximal effect.
row,SMILES,Potency
1,O=[N+]([O-])c1cc(/C=N\Nc2nc(-c3ccccc3)cs2)ccc1O,"inconclusive: 14.1 µM [inhibitor, full curve, poor fit]"
2,CN(C)C(=S)Nc1cccc(-c2n[nH]c(=S)o2)c1,inactive
3,Cc1cc(C)n2c(SCC(=O)NCc3ccc4c(c3)OCO4)nnc2n1,"inconclusive: 5.01 µM [inhibitor, full curve]"
4,Cc1[nH]c2ccc(Br)cc2c(=O)c1CN1CCCCCC1,"inconclusive: 31.6 µM [inhibitor, single point]"
5,O=C(COC(=O)C1CCN(S(=O)(=O)c2ccc3c(c2)OCCO3)CC1)Nc1ccc(C(F)(F)F)cc1,"inconclusive: 89.1 µM [inhibitor, partial curve, poor fit]"
6,CC(C)(C)c1ccc(OCCn2c(CCNC(=O)C3CCCCC3)nc3ccccc32)cc1,"inconclusive: 28.2 µM [inhibitor, single point]"
7,COc1ccc(CNCc2cc(Cl)ccc2O)cc1,"inconclusive: 28.2 µM [inhibitor, full curve, poor fit]"
8,Cc1c(OCC(=O)NCCCN2CCCC2=O)ccc2c3c(c(=O)oc12)CCCC3,"inconclusive: 35.5 µM [inhibitor, partial curve, poor fit]"
9,Cc1ccc(S(=O)(=O)N2CCN(c3nc(-n4c(=O)[nH]c5ccccc54)nc4ccccc34)CC2)cc1,inactive
10,O=S(=O)(Cc1ccccc1)N=Nc1c(O)[nH]c2ccc(Br)cc12,"inconclusive: 25.1 µM [inhibitor, single point]"
11,CCOc1ccc(CNC(=O)C2CCN(S(=O)(=O)c3cn(C)cn3)CC2)cc1OC,"inconclusive: 89.1 µM [inhibitor, single point]"
12,CS(=O)(=O)c1ccc2c(c1)SC1=NC(=O)/C(=C/c3ccco3)C(=N)N12,active: 14.1 µM
13,CCOc1cc(C(=S)N2CCOCC2)ccc1OC(=O)c1ccc(C)cc1,"inconclusive: 79.4 µM [inhibitor, single point]"
14,CCOc1ccc(N2C(=O)CC(NCCc3c[nH]c4ccccc34)C2=O)cc1 (stereo unspecified),"inconclusive: 2.82 µM [inhibitor, full curve, poor fit]"
15,COc1ccc(-n2nc(C(=O)NCC(=O)Nc3cccc(C)n3)c3ccccc3c2=O)cc1,"inconclusive: 112 µM [inhibitor, partial curve, poor fit]"
16,CC(C)c1ccc(NC(=O)CCC(=O)NCc2ccco2)cc1,inactive
17,O=C(CCNC(=O)c1ccccc1Cl)NCC(c1ccc(F)cc1)N1CCOCC1 (stereo unspecified),inactive
18,O=C(c1ccccc1)c1ccc2nc(Nc3cc(Cl)ccc3O)c3nncn3c2c1,"inconclusive: 100 µM [inhibitor, partial curve, poor fit]"
19,CCNC(=S)N/N=C1\CCCCc2ccccc21,"inconclusive: 100 µM [inhibitor, single point]"
20,COc1ccc(S(=O)(=O)NCc2ccc3c(c2)cc(C)n3C)cc1,"inconclusive: 50.1 µM [inhibitor, partial curve, poor fit]"
21,CCS(=O)(=O)Nc1cccc(C2=NN(C(=O)c3ccco3)C(c3ccco3)C2)c1 (stereo unspecified),"inconclusive: 31.6 µM [inhibitor, partial curve, poor fit]"

# A few values from above.
# For Potency, `O=[N+]([O-])c1cc(/C=N\Nc2nc(-c3ccccc3)cs2)ccc1O` is listed with inconclusive: 14.1 µM [inhibitor, full curve, poor fit]
# For Potency, `COc1ccc(CNCc2cc(Cl)ccc2O)cc1` is listed with inconclusive: 28.2 µM [inhibitor, full curve, poor fit]

# Remaining list, next part

row,SMILES,Potency
1,COc1ccc(C(=O)NC(=S)Nc2ccc3c(c2)Cc2ccccc2-3)cc1,inactive
2,CCOc1ccc(Cl)cc1S(=O)(=O)NCc1cccnc1,"inconclusive: 89.1 µM [inhibitor, single point]"
3,COc1cc2nc(=S)n3[nH]c(CCn4c(C)nc5ccccc54)nc3c2cc1OC,"inconclusive: 0.708 µM [inhibitor, full curve, poor fit]"
4,CC(C)[C@H](NC(=O)OCc1ccccc1)C(=O)OCC(=O)NCc1ccco1,active: 15.8 µM
5,C=CCSC1=N/C(=C\c2ccc3c(c2)OCO3)C(=O)S1,inactive
6,O=c1[nH]c(/C=C/c2cccc([N+](=O)[O-])c2)c([N+](=O)[O-])c(=O)[nH]1,"inconclusive: 17.8 µM [inhibitor, partial curve, poor fit]"
7,COc1ccc(Nc2cc(C)c3cc(NC(=O)c4cc(OC)cc(OC)c4)ccc3n2)cc1,inactive
8,CCN(CC(=O)Nc1ccccc1C(F)(F)F)C(=O)CCc1nc2sc3c(c2c(=O)[nH]1)CCCC3,active: 28.2 µM
9,O=C(Nc1cccnc1Cl)c1cc(-c2ccco2)on1,"inconclusive: 70.8 µM [inhibitor, single point]"
10,COC(=O)c1ccccc1NC(=O)Cn1c(=O)n(CCCC(=O)NCCc2ccc(OC)c(OC)c2)c(=O)c2ccccc21,inactive
11,CCOC(=O)CSC1=NC(=O)/C(=C\c2ccc(Cl)cc2)S1,"inconclusive: 31.6 µM [inhibitor, partial curve, poor fit]"
12,CCn1c(-c2sc(-c3ccccc3)nc2C)n[nH]c1=S,inactive
13,COC(=O)/C=c1\sc2ncnn2c1=O,"inconclusive: 14.1 µM [inhibitor, partial curve, poor fit]"
14,Cc1ccc(NC(=O)CN(C)C(=O)c2ccc3[nH]c4c(c3c2)CC(C)CC4)cc1 (stereo unspecified),"inconclusive: 89.1 µM [inhibitor, partial curve, poor fit]"
15,N#Cc1ccc(-c2ccc(Cl)cc2)nc1SCC(=O)c1cccc(Cl)c1,"inconclusive: 31.6 µM [inhibitor, single point]"
16,CCN(CC)c1ccc(N2C(=O)CSC2=S)cc1,"inconclusive: 17.8 µM [inhibitor, partial curve, poor fit]"
17,C/C(=N\OCC(=O)OC(C)C(=O)Nc1ccc(C)c(S(=O)(=O)N2CCOCC2)c1)c1ccc2c(c1)OCO2 (stereo unspecified),"inconclusive: 50.1 µM [inhibitor, partial curve, poor fit]"
18,N#Cc1c[nH]n2c(NC3CCCCC3)c(-c3cccc(Cl)c3)nc12,"inconclusive: 89.1 µM [inhibitor, single point]"
19,CCNc1nc(NCC)n2c(SCC(=O)Nc3ccccc3Cl)nnc2n1,inactive
20,O=c1c(S(=O)(=O)c2ccc(Cl)cc2)cn(Cc2ccccc2F)c2ccc(F)cc12,inactive
